Data published in PMC9691931.
These are yes or no findings as the source states them, for the method shown. Binding seen in cells or lysates may run through a third protein. Some binding calls cover weakened binding; strength is not graded here.

Protein sequences, listed by entry. Tags and fused reporters are not part of them. Lines headed by an entry give the natural chain unless they say otherwise; changes in a name come on top. Chains listed by the source or under a name are the forms on record and can include a tag or linker.
CaVα2δ1 auxiliary subunit (P54289, form named): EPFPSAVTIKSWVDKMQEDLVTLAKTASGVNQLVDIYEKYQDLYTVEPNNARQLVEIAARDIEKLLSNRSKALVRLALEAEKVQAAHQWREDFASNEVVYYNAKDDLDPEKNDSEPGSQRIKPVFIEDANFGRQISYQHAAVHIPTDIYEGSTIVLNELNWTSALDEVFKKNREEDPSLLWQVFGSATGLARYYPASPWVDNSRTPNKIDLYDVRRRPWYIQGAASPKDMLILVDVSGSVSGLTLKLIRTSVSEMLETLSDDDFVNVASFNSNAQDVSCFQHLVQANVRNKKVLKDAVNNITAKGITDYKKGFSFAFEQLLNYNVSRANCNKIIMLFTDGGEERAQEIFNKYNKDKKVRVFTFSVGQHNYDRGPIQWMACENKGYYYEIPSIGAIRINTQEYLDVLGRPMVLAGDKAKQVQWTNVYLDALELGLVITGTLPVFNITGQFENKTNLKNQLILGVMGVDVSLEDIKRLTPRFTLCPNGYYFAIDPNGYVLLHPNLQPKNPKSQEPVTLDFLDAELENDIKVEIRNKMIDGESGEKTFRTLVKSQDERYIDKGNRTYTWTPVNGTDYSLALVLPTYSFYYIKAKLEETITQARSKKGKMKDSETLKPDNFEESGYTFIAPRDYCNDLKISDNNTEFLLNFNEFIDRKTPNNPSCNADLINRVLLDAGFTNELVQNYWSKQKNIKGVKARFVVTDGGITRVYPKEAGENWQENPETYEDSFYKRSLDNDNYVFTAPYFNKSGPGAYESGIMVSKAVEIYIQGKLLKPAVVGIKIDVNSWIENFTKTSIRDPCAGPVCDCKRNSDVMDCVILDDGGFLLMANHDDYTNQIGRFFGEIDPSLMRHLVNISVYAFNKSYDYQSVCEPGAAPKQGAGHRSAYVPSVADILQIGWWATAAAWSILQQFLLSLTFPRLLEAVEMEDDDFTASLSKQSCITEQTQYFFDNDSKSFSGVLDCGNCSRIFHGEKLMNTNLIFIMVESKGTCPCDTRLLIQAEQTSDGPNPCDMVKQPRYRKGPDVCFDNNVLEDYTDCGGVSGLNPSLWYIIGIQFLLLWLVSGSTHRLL
UniProt P15381: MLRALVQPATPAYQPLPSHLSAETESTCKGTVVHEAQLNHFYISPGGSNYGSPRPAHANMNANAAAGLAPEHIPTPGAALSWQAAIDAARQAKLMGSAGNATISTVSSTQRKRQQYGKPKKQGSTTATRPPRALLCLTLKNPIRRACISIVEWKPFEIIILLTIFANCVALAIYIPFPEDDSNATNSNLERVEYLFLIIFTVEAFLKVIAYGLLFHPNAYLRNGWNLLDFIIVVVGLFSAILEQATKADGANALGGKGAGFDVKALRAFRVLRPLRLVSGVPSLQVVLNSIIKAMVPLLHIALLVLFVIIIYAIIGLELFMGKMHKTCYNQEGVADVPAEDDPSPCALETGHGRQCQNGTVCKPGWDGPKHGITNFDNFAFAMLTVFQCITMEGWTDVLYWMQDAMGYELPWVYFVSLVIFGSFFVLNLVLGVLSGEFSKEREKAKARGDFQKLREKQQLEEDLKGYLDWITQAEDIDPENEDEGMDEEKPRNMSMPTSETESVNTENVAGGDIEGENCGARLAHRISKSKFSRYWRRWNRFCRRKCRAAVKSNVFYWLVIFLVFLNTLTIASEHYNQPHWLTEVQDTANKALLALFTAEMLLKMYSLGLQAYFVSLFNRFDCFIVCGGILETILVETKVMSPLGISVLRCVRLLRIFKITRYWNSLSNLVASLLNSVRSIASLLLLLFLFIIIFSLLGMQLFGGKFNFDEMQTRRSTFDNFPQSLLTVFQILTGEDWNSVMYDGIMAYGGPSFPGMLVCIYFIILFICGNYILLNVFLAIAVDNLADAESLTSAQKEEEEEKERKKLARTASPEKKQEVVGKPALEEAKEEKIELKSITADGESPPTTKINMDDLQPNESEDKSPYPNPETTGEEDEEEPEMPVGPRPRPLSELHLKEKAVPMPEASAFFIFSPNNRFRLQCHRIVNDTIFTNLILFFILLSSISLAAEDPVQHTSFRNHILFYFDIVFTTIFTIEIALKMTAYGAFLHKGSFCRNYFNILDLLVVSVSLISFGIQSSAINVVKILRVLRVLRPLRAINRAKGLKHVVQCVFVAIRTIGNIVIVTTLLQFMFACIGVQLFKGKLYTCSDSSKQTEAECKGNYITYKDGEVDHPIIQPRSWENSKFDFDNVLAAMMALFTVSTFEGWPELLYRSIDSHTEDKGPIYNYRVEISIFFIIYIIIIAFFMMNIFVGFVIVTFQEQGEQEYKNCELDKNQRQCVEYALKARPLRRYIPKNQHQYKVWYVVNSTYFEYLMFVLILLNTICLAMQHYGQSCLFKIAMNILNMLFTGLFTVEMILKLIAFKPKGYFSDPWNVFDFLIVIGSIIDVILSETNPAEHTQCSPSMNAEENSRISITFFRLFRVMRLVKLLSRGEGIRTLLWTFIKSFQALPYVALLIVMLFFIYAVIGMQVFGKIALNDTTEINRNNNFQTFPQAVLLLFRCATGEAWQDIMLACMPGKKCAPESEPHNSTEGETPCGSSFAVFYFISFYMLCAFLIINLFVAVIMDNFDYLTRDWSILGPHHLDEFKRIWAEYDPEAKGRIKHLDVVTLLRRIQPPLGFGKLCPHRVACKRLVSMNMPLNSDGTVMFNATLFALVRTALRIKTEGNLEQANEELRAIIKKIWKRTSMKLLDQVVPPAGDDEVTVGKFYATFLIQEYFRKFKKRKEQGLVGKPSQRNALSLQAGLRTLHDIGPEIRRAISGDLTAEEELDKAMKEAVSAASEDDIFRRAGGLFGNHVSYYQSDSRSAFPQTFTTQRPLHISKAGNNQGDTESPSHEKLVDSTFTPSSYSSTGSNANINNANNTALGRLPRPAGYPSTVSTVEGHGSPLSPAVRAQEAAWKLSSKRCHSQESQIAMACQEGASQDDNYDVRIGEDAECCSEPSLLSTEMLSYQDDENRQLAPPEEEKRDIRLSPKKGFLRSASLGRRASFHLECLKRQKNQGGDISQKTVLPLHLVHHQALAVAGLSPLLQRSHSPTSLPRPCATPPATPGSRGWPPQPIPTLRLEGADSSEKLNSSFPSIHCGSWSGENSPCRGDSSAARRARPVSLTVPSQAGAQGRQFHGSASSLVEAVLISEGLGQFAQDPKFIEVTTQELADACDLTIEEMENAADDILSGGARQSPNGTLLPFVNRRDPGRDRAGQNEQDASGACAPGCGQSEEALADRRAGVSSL

How the values were obtained:
[1] = biological target: CaVα2δ1 auxiliary subunit (UniProt P54289); test: co-IP; HEKT cells co-transfected with CaV1.2 WT or G449R, CaVα2δ1 and cMyc-tagged CaVβ3 or CaVβ2a; CaVβ as bait; lysates (20 mM Na-Mops pH 7.4, 300 mM NaCl, 1% digitonin or 0.5% CHAPS) incubated overnight with anti-cMyc magnetic beads; Western blot
[2] = biological target: cMyc-tagged CaVβ3 (UniProt P54287); test: as above

CaVα1C pore-forming subunit of the L-type CaV1.2 channel, G449R (rabbit clone numbering; human G419R) (from UniProt P15381 1-2171)
binding [1]: binds | binding [2]: binds

CaVα1C pore-forming subunit of the L-type CaV1.2 channel, WT (rabbit clone) (from UniProt P15381 1-2171)
binding [1]: binds | binding [2]: binds
